Data from publication PMC9462477.
No constants are given. Whether binding was seen depends on the method and setting. In cells and extracts the contact can be indirect. A yes stands for co-enrichment or nearness to the bait. Other partners may have been found.

Protein sequences, listed by entry. Tags and fused reporters are not part of them. Residues count along the entry.
UniProt P43004, residues 10-574: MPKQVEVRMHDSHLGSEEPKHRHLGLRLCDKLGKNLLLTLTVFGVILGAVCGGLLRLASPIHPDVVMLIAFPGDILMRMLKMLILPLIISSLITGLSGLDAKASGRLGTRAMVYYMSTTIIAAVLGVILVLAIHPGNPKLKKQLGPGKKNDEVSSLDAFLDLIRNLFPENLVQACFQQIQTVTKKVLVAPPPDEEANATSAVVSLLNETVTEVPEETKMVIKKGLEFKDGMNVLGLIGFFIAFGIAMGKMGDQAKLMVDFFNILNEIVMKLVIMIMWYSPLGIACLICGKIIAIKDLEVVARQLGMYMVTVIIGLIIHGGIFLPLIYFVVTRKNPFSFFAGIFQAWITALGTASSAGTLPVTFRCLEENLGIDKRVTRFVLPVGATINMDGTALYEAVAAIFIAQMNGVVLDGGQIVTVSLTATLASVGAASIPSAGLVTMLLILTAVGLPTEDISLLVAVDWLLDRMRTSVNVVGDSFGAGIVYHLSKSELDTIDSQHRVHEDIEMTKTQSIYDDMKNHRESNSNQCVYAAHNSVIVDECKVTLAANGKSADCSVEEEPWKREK
UniProt Q9UKV5: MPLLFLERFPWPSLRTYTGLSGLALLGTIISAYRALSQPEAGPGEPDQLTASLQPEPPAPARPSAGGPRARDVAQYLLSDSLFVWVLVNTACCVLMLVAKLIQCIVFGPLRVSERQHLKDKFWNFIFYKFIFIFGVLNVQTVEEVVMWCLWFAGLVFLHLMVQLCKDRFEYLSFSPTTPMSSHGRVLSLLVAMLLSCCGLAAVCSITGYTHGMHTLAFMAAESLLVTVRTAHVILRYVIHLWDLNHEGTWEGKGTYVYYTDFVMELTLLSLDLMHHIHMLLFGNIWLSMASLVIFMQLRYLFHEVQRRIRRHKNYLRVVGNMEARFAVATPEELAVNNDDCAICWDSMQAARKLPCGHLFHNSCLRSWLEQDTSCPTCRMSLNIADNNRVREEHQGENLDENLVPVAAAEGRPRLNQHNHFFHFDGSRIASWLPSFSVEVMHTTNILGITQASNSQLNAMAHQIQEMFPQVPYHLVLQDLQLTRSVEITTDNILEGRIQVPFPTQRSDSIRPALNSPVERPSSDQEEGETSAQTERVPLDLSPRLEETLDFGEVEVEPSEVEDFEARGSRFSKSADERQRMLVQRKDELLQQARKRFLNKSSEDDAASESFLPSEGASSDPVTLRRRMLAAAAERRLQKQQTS

Target: EAAT2-FLAG (excitatory amino acid transporter 2, FLAG-tagged) (human) (UniProt P43004)
Assay: affinity purification with mass spectrometry; EAAT2-FLAG precipitated with FLAG antibody from HEK293 cells, SDS-PAGE, digested, MS; ion score greater than 300 taken as high-confidence

binding: binds
Substance: AMFR (E3 ubiquitin ligase AMFR), found by MS with EAAT2-FLAG (from UniProt Q9UKV5 1-643) (enzyme)
